The results in this text go back to paper PMC5731924.

No constants are given. Whether binding was seen depends on the method and setting. Binding seen in cells or lysates may run through a third protein. Some results given as binding are weak or reduced against the parent protein; the word gives no strength.

For the assay, the target named is P53 tumor suppressor protein (human (endogenous in A549)) (UniProt P04637). Nature of the assay: co-IP; A549 lysate (10 mM HEPES pH 7.2, 142.5 mM KCl, 5 mM MgCl2, 1 mM EGTA, 0.2% NP-40), precleared, incubated with protein A-agarose beads linked with anti-TCTP, anti-P53 or control antibody; immunoblot. In general terms: A western blot detects proteins with antibodies after separation by electrophoresis.

B1: Translationally controlled tumor protein (protein, UniProt P13693 1-172)
chain: MIIYRDLISHDEMFSDIYKIREIADGLCLEVEGKMVSRTEGNIDDSLIGGNASAEGPEGEGTESTVITGVDIVMNHHLQETSFTKEAYKKYIKDYMKSIKGKLEEQRPERVKPFMTGAAEQIKHILANFKNYQFFIGENMNPDGMVALLDYREDGVTPYMIFFKDGLEMEKC
For B1, the binding result is “binds”.
